Results deposited as PubChem BioAssay AID1259308 (NCATS, 2017)
Test: 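Candidate targets for better recombinant protein yield in mammalian cells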 (primary screen). Cells: human HEK293 embryonic kidney cells stably expressing firefly luciferase (HEK-CMV-Luc2-Hygro). Reagent: single siRNA against human genes, 0.8 pmol siRNA per well. Duration: 72 h. Measured: 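Luciferase light (ONE-Glo) measured on one replicate plate set and viability (CellTiter-Glo) on the other, scaled to a negative control siRNA, with robust z-scores and luciferase per cell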. Reading the numbers: total luciferase, z-score and total luciferase, % of control: higher = more reporter protein produced; luciferase per cell, z-score: higher = more reporter output per viable cell; viable cells, % of control: higher = more viable cells. Call rule: 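An siRNA counts as active if its total luciferase robust z-score exceeds 3; genes with two or more such siRNAs out of three were retested with fresh siRNAs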. Meaning of the calls: active = raised luciferase; inactive = no rise.
This is an unselected part of about 59,000 reagents. About 1,510 of them (2.6%) count as active. 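Calls use total luciferase alone and ignore viability, so some active siRNAs may act by altering cell number.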 Unmarked entries are inactive. Reagents against one gene are numbered here.

no.	target gene	reagent no.	total luciferase, z-score	total luciferase, % of control	luciferase per cell, z-score	viable cells, % of control
1	PLA2G4A	1	-0.842	65.1	-0.691	87.3
2	PLA2G4A	2	-0.107	79.8	-0.762	109
3	PLA2G4A	3	-0.169	78.5	-0.458	99
4	FANCD2OS	1	-1.78	46.4	-1.46	76.1
5	FANCD2OS	2	-1.46	52.9	-0.609	69.4
6	FANCD2OS	3	-0.458	72.8	-0.469	92
7	DNAJC12	1	-0.0901	80.1	0.00353	89.4
8	DNAJC12	2	-0.469	72.6	-0.409	90.3
9	DNAJC12	3	3.51 (active)	152	3.31	70.8
10	DUS4L	1	1.55	113	1.48	85.5
11	DUS4L	2	0.898	99.7	0.228	105
12	DUS4L	3	-0.452	72.9	-0.701	98
13	FAM162A	1	-0.244	77	0.28	80
14	FAM162A	2	-0.215	77.6	-0.784	107
15	FAM162A	3	-0.107	79.8	-0.504	102
16	BICD2	1	-0.419	73.6	-0.654	97.7
17	BICD2	2	0.431	90.5	-0.0877	103
18	BICD2	3	-0.164	78.6	0.123	85.1
19	PIGH	1	1.21	106	1.11	88.3
20	PIGH	2	-0.802	65.9	-0.878	92.8
21	PIGH	3	-0.117	79.6	0.311	81.9
22	CBX6	1	-1.16	58.8	-1.5	97.7
23	CBX6	2	-0.41	73.7	-0.769	101
24	CBX6	3	0.456	90.9	0.656	85.5

Already shown: an excerpt of the list.
no.	target gene	reagent no.	total luciferase, z-score	total luciferase, % of control	luciferase per cell, z-score	viable cells, % of control
14	FAM162A	2	-0.215	77.6	-0.784	107
15	FAM162A	3	-0.107	79.8	-0.504	102
16	BICD2	1	-0.419	73.6	-0.654	97.7
17	BICD2	2	0.431	90.5	-0.0877	103
18	BICD2	3	-0.164	78.6	0.123	85.1
19	PIGH	1	1.21	106	1.11	88.3

Continued:
no.	target gene	reagent no.	total luciferase, z-score	total luciferase, % of control	luciferase per cell, z-score	viable cells, % of control
25	XYLB	1	-1.29	56.3	1.26	45.2
26	XYLB	2	1.96	121	1.51	90.6
27	XYLB	3	0.0809	83.5	-0.098	95.7
28	KIAA0825	1	2.4	130	1.94	86.9
29	KIAA0825	2	-2	42.2	-1.11	63.1
30	KIAA0825	3	1.31	108	1.81	74.9
31	GDF1	1	-0.356	74.8	-0.376	92.3
32	GDF1	2	-1.56	50.8	-0.935	72.6
33	GDF1	3	-2.01	41.9	-2.02	79.8
34	ZDHHC15	1	-0.617	69.6	-1.06	103
35	ZDHHC15	2	-1.65	49.1	-0.921	70
36	ZDHHC15	3	0.258	87	0.263	90.7
37	CASP7	1	-0.391	74.1	-0.75	101
38	CASP7	2	-1.11	59.9	0.109	65
39	CASP7	3	0.677	95.3	-0.0801	109
